Where a chain is given by its changes, count along the chain named. Numbers in names are those of the source. Results are given in words; binding and its absence hold for the method and conditions named. For part of these data: In cells and extracts the contact can be indirect. Some results given as binding are weak or reduced against the parent protein; the word gives no strength. For part of these data: Sequences can lack the tags named with a protein. Each block holds one molecule with its values, some of them ahead of it.
Legend:
[1] = biological target: T1, Flag-Banf1 (barrier-to-autointegration factor 1), wild type (human) (UniProt O75531); assay: co-IP; Flag immunoprecipitation from HEK293T cells expressing Flag-tagged Banf1 or PARP1 proteins, untreated or 1 h after H2O2 removal; lysates sonicated and digested with nuclease; lysis buffer 20 mM HEPES pH 7.5, 250 mM KCl, 0.5% Triton X-100; 4 °C; immunoblot
T1 sequence: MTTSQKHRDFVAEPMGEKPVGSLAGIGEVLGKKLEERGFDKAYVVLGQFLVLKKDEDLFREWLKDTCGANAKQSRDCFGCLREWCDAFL

Sequences of proteins named here, by UniProt entry; tags and fusion partners are left off. A change or cut given only in a name is not applied to a line headed by its entry.
UniProt P09874: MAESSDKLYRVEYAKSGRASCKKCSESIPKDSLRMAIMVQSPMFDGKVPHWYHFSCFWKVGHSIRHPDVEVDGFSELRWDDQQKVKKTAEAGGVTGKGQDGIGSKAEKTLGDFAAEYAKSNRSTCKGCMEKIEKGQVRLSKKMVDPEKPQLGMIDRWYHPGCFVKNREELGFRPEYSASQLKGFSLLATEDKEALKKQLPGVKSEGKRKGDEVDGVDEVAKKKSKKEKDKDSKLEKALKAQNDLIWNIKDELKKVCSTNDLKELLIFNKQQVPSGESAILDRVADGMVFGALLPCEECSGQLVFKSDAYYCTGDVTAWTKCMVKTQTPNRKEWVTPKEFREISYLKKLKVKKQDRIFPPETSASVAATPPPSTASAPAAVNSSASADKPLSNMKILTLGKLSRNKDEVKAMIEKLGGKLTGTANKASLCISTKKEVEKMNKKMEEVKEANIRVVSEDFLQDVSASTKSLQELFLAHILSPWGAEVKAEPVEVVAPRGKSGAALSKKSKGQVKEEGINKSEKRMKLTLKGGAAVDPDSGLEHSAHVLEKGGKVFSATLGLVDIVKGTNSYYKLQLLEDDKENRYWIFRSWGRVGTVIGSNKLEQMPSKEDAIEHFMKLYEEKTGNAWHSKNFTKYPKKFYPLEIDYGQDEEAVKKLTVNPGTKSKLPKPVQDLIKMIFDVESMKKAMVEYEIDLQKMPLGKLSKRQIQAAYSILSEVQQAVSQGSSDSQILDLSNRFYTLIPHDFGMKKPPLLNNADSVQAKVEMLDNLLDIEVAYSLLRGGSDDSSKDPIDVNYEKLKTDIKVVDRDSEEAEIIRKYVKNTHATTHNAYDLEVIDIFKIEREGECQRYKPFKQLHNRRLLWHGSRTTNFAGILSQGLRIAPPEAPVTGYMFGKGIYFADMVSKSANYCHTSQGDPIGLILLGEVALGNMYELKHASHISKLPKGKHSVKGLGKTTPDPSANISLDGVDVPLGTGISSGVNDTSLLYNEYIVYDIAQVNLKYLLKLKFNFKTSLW

Flag-Banf1 A12T (human) = biological target: T2, Flag-Banf1 A12T (human) (UniProt O75531); assay: as above
T2 sequence: T1 sequence with A12T

Flag-Banf1 D9A (human) = biological target: T3, Flag-Banf1 D9A (human) (UniProt O75531); assay: as above
T3 sequence: T1 sequence with D9A

[2] = biological target: purified wild type PARP1 recombinant protein (UniProt P09874); assay: co-IP; 500 ng purified PARP1 incubated with 100 ng purified Banf1 for 5 min at room temperature in 50 mM Tris-HCl pH 7.8, 10 mM MgCl2, 1 mM DTT, ± NAD+/DNA/olaparib; immunoprecipitation with PARP1 antibodies, immunoblot; both purified
[3] = biological target: purified PARP1 E988K recombinant protein (UniProt P09874); assay: as above
[4] = biological target: poly [ADP-ribose] polymerase 1 (PARP1), endogenous (human (endogenous in HEK293T and human skin fibroblasts)) (UniProt P09874); assay: co-IP; endogenous proteins in 293T cells and human skin fibroblasts, with or without H2O2; lysates digested with nuclease; immunoblot
Flag-PARP1 E988K (human) = Flag-PARP1 E988K (human) (UniProt P09874); assay: co-IP; in cells, catalytically inactive PARP1 E988K or PARP1 inhibitors; details in Supplementary Fig. 2d-f, not shown
[5] = biological target: Myc-DDK-tagged human PARP1 (Flag-PARP1), wild type (human) (UniProt P09874); assay: co-IP; Flag immunoprecipitation from HEK293T cells expressing Flag-tagged Banf1 or PARP1 proteins, untreated or 1 h after H2O2 removal; lysates sonicated and digested with nuclease; lysis buffer 20 mM HEPES pH 7.5, 250 mM KCl, 0.5% Triton X-100; 4 °C; immunoblot

B1: HexaHis-tagged Banf1 A12T, purified (protein, UniProt O75531 1-89)
chain: T1 sequence with A12T
binding [2]: binds

B3: Barrier-to-autointegration factor 1 (Banf1), endogenous (protein, UniProt O75531 1-89)
chain: T1 sequence
binding [4]: binds
binding (Flag-PARP1 E988K (human)): binds
binding [5]: binds

Second part, the molecule after the results:

binding [1]: binds
binding (Flag-Banf1 A12T (human)): binds
binding (Flag-Banf1 D9A (human)): binds
Molecule: poly [ADP-ribose] polymerase 1 (PARP1), endogenous (from UniProt P09874 1-1014) (enzyme)

binding [2]: binds
binding [3]: binds
B2: HexaHis-tagged Banf1, wild type, purified (protein, UniProt O75531 1-89)
chain: T1 sequence
